Experimental data as given in patent US9435807B2, “Use of leucyl tRNA synthetase” (Medicinal Bioconvergence Research Center, priority 2011, dated 2016).
At least one structure is not confirmed: it was looked up by name or label, or the drawing left a doubt.

Test system: 293T cells
Experiment: Cell size determination (FSC of G1 cells, FACS)
Type: cell-based
Protocol: For measurement of cell size using forward scatter units (FSC) with unfixed cells. 293T cells were plated, washed once with PBS, and resuspended in PBS containing 0.1% serum, 5 mM EDTA, 5 ng/ml propidium iodide (PI; Sigma). Samples were analyzed by FACS analysis (FACS caliber; Becton Dickinson) for cell size (FSC). The mean of FSC of G1 phase cells was determined.

CO[C@H]1C[C@@H]2CC[C@@H](C)[C@@](O)(O2)C(=O)C(=O)N2CCCC[C@H]2C(=O)O[C@H]([C@H](C)C[C@@H]2CC[C@@H](O)[C@H](OC)C2)CC(=O)[C@H](C)/C=C(\C)[C@@H](O)[C@@H](OC)C(=O)[C@H](C)C[C@H](C)/C=C/C=C/C=C/1C [rapamycin]
cell size: reduced cell size
